Screening data, single-dose tests

Source: ChEMBL document CHEMBL3988442, “University of Dundee, Small-Polar-MMV Screening Library” (2021).

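Growth of Mycobacterium tuberculosis over 3 days (7H9 medium with glucose and tyloxapol); the read-out is not stated. Compounds at 50 µM. The record gives no direction; compounds that gave an IC50 in retests scored well above the rest, so higher reads as more growth inhibition. Size under these conditions: about 69,000 compounds, about 760 of them at 50% or above in at least one test.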

Each number is a percent effect as filed. The record does not define 0% and 100%; most values in the screen are far below 50% and negative numbers occur (in some assays of this library far below -100). This is an unselected part of the compounds tested. Two or more numbers in one place are separate tests of the same structure; such repeats can differ widely.

structure	Percent Effect
O=C(O)C(F)(F)F.[H][C@@]12CN(CC)C[C@]1([H])[C@H](OC)CCN2C(=O)Cc1ccsc1	19.78
O=C(O)C(F)(F)F.O=C(c1cnccn1)N1CCCC2(CCN(Cc3ccc(F)cc3)C2)C1 (centres unmarked)	5.436 and 24.16
COCCc1noc(-c2cn(CCc3ccccc3)nn2)n1	15.2 and 42.52
CS(=O)(=O)N1CCC[C@]2(C[C@@H](Oc3ncccc3F)CO2)C1.O=C(O)C(F)(F)F	3.069
COc1ccccc1C(C)CC(=O)N1CC[C@H](O)C1 (some centres unmarked)	24.09
O=C(O)C(F)(F)F.[H][C@@]12CCN(CC3CCOC3)[C@@]1([H])CC(=O)N2Cc1csc(C)n1 (some centres unmarked)	0.4183
CC(=O)N1CCC(c2nc(Cc3ccccc3)no2)C1 (centres unmarked)	-15.05 and -2.559
CCC(C)(N)c1nc(=O)c(C(C)C)c(C)[nH]1.Cl (centres unmarked)	-2.727
Cc1nn(C)c(Cl)c1C1CCCN1C(=O)c1cnn(C)c1C1CC1 (centres unmarked)	-8.355
Cn1ccc(C(=O)N2CCC(Cc3cnc4[nH]ccc4c3)C2)n1 (centres unmarked)	13.03
CCC[C@@H]1CN(C(=O)c2ccccc2-c2ccccc2)C[C@H]1N(C)C	-5.034
Cc1cccc(-c2ccc(C(=O)NCC3CCCOC3)c(=O)[nH]2)c1 (centres unmarked)	-0.1053 and -0.5954
O=C(O)c1ccccc1-c1ccc(CN2CCC(CO)C2)cn1 (centres unmarked)	1.818
Cc1cc(C)c2c(N3CCC(C(=O)N4CCOCC4)CC3)ncnc2n1	-0.1236
CN(CC(=O)Nc1ccc(Br)cn1)C(=O)C(C)(C)C	-25.94
COC(=O)[C@H]1C[C@@H](O)CCN1S(=O)(=O)c1cc(C)c(Cl)cc1C	7.635 and 1.334
Oc1cc(C2CCCCN2C2CCCC2)nc(-c2ccncc2)n1 (centres unmarked)	-1.859
[H][C@@]12CCN(C(=O)c3cccnc3)C[C@]1([H])[C@@H](CNS(C)(=O)=O)OC2	-32.88 and -5.481
COc1ccccc1C(C)CC(=O)N1CCN(S(N)(=O)=O)CC1 (centres unmarked)	-49.29
Cc1cc(C)n(C2CCCN(C(=O)c3cc(C4CC4)on3)C2)n1 (centres unmarked)	-5.358
CN(C)c1cnn(Cc2nc3ccccc3n2C)c(=O)c1	-16.06 and -1.882
O=C(O)C(F)(F)F.[H][C@@]12CCN(c3ncccn3)C[C@]1([H])[C@H](C(=O)NC(C)C)CCO2	-7.835 and -26.55
Cc1n[nH]c(C(=O)N2CCCC(C)CC2)c1Br (centres unmarked)	-22.28
O=C(NCc1nncn1-c1ccccc1)C1CC(=O)N(CC2CC2)C1 (centres unmarked)	11.62
CC(C)CC(C)NCc1cccnc1N1CCOCC1 (centres unmarked)	-2.848 and -18.65
CCN(C(C)c1cccc(O)c1)S(=O)(=O)c1cccnc1 (centres unmarked)	-4.073
COCc1cc(O)nc(C2CCCN(Cc3cccc(Cl)c3Cl)C2)n1 (centres unmarked)	42.52
O=C(NCC(F)F)c1ccc(S(=O)(=O)N2CCCC(O)C2)cc1 (centres unmarked)	0.2823
CCc1ocnc1C(=O)N1CCOCC1CC(=O)c1ccccc1 (centres unmarked)	18.73
[H][C@@]12COC[C@]1(CNS(C)(=O)=O)CN(C(=O)c1ccoc1)C2	34.84
Cc1cnc(C(=O)N2CCC3(CC2)C(=O)NCCN3CC(C)C)cn1	16.42
CCN(CC1CCOC1)C(=O)c1cn2ccc(C)cc2n1 (centres unmarked)	1.974 and -1.801
[H][C@@]12COC[C@]1([H])[C@H](N(CC)CC)CN2Cc1cnn(C)c1	7.369
Cc1cnc2c(S(=O)(=O)N(C)C3CCS(=O)(=O)C3)cccc2c1 (centres unmarked)	19.64
[H][C@@]12OCCN(C(=O)c3nn(C)c4ccccc34)[C@@]1([H])CC[C@@H]2OCC	-8.947
Cc1nnc(C(C)N2CCc3[nH]c4ccccc4c3C2)o1 (centres unmarked)	26.72
Cc1cccnc1C(Cc1ccsc1)NC(=O)Cn1cccnc1=O (centres unmarked)	0.9672
COc1ccccc1OC1CN(C(=O)C(c2ccc(F)cc2)N(C)C)C1 (centres unmarked)	17.97
CS(=O)(=O)c1ccc2c(c1)N(C(=O)Cc1cccc(F)c1)CCC2	-13.54
O=C(NCCNc1ncccn1)N1CCSCC1	-5.632
CO[C@@H]1CCC[C@@H](NC(=O)C(C)(C)c2cccc(F)c2)[C@H]1O	-37.37
Cc1ncc(CNC(=O)CCc2cccs2)c(C2CCCN2C)n1 (centres unmarked)	12.24
COc1c(C)cnc(CN2CCC(C(=O)N(C)C)CC2)c1C	2.094
Cc1csc(C(C)(C)NCc2ncc(-c3ccc(F)cc3)o2)n1	16.74
CC(NC(=O)CSCC#N)c1cccc(NC(=O)c2ccccc2)c1 (centres unmarked)	4.038
CC(C)c1cc(C(=O)NCCN2CCOCC2)nc(N2CCCC2)n1	7.238
CCc1ncc2c(n1)CN(c1cc(N3CCN(C)CC3)nc(N)n1)C2	5.648
CC(NS(=O)(=O)CCc1ccccn1)c1ccccc1Br (centres unmarked)	25.34
CN1CCN(C(=O)C2CCCc3[nH]ncc32)CC1 (centres unmarked)	19.1
Cl.Cl.O=C([C@@H]1CSCN1)N1CCC2(CC1)CNCc1ccccc12	9.081 and 4.088
Cc1cc(C)n(CC2CCCN2C(=O)c2cnn(C)c2C2CC2)n1 (centres unmarked)	7.468
Cc1cnn(CC2CCCN2CC(=O)N(C)Cc2ccco2)c1 (centres unmarked)	13.27 and 11.85
O=C(Nc1ccccc1)c1cc2n(n1)CCCN(C(=O)N1CCCC1)C2	-12.28 and -36.28
O=C1CC2(CCN(c3nncs3)C2)CN1c1cncnc1 (centres unmarked)	-0.552
c1cc(-c2c[nH]c([C@@H]3COCCN3CC3CC3)n2)ccn1	-2.771 and 12.32
Cc1nc(C)n(CC2CCCN2CCOc2ccc(C#N)cc2)n1 (centres unmarked)	6.948
CCn1cc2c(n1)CN(S(=O)(=O)Cc1ccccc1)CC2COC (centres unmarked)	-4.22 and 1.75
Cn1cc(C2COC3(CCN(C(=O)Cc4ccccc4)CC3)C2)cn1 (centres unmarked)	10.33
CC(C)NC(=O)N1CCC(c2nccn2C(C)C)CC1	-16.08
CCc1nc(C2CCCN(C(=O)c3cccc4cn[nH]c34)C2)no1 (centres unmarked)	-9.684
Cn1cc(CNC2CCCOc3c(Cl)cccc32)cn1 (centres unmarked)	2.795 and -40.97
COC(=O)NCC(=O)NC1CC(C)(C)Cc2oc(C)cc21 (centres unmarked)	-30.63
COCCn1cc(NCc2cn(C)nc2-c2ccncc2)cn1	-13.5
NC(=O)Nc1cc(F)ccc1SCC(F)F	-1.771
Cc1ccsc1C(=O)NC(C)c1ccc2c(c1)CCC(=O)N2 (centres unmarked)	15.36
CCCOCC(=O)N1CCC2(CC1)c1nc[nH]c1CCN2S(C)(=O)=O	-7.145
CC(C)c1nc2n(n1)CC(NCc1nnnn1C1CC1)CC2 (centres unmarked)	22.67
Cn1ncc2c1NC(=O)CC2c1c(F)cccc1Cl (centres unmarked)	19.71
[H][C@@]12C[C@H](C(=O)Nc3ccccc3)[C@@]([H])(CN(S(=O)(=O)C3CC3)C1)O2	10.55
Cc1noc(C)c1CN1CCOC2(CCCN(c3nncs3)C2)C1.O=C(O)C(F)(F)F (centres unmarked)	7.606 and 1.764
[H][C@]12CN(c3ncc(CC)cn3)C[C@@]1([H])S(=O)(=O)CC[C@@H]2C(=O)N(C)C	-11.97
COC(=O)c1cc(NC(=O)NCC2CCS(=O)(=O)C2)ccc1Cl (centres unmarked)	-10.79
[H][C@@]12OCCN(C(=O)COC)[C@@]1([H])CC[C@H]2OC	-15.12
O=C(c1ccc(O)nc1)N1CCc2ccc(O)cc2C1	-24 and 1.555
Cc1cc(C2NC(=O)CN2Cc2ccc(Br)cc2)cc(C)c1O (centres unmarked)	-12.86
CN1CCN(c2ccc(NC(=O)c3ccccn3)c(C(F)(F)F)c2)CC1	-20.94
CN(c1ccc(C#N)cn1)C1CCCN(Cc2noc(C3CC3)n2)C1 (centres unmarked)	3.94
CCN1CCC2(CC1)CC(NC(=O)NC)c1cc(C)ccc12.O=C(O)C(F)(F)F (centres unmarked)	20.5
O=C1COc2ccc(S(=O)(=O)NCCC3=CCCCC3)cc2N1	9.462
CC(C(=O)N(Cc1ccc(F)cc1)CC(F)(F)F)S(C)(=O)=O (centres unmarked)	8.186
C[C@@H]1CN(C(=O)C2(Cn3cccn3)CC2)CC[C@@]1(O)C1CC1	-6.713
CC(Nc1cccc2c1OCCO2)C(=O)Nc1ccc(Cl)cc1 (centres unmarked)	11.22
Fc1ccc(OC2CCN(CCn3cncn3)CC2)cc1	-8.97 and 1.797
CC(C)Cc1nc(CSCC(=O)N2CCC(C)CC2)no1	1.861
Cc1cccc(CN2CCCC3(CCN(C4CCSCC4)C3)C2=O)c1 (centres unmarked)	54.73 and 53.15

For reference, 8 entries once more:

structure,Percent Effect
CCn1cc2c(n1)CN(S(=O)(=O)Cc1ccccc1)CC2COC (centres unmarked),-4.22 and 1.75
O=C(c1ccc(O)nc1)N1CCc2ccc(O)cc2C1,-24 and 1.555
O=C1CC2(CCN(c3nncs3)C2)CN1c1cncnc1 (centres unmarked),-0.552
CCN1CCC2(CC1)CC(NC(=O)NC)c1cc(C)ccc12.O=C(O)C(F)(F)F (centres unmarked),20.5
[H][C@@]12CCN(C(=O)c3cccnc3)C[C@]1([H])[C@@H](CNS(C)(=O)=O)OC2,-32.88 and -5.481
O=C(O)C(F)(F)F.O=C(c1cnccn1)N1CCCC2(CCN(Cc3ccc(F)cc3)C2)C1 (centres unmarked),5.436 and 24.16
NC(=O)Nc1cc(F)ccc1SCC(F)F,-1.771
CN1CCN(c2ccc(NC(=O)c3ccccn3)c(C(F)(F)F)c2)CC1,-20.94